{"source": "PubChem BioAssay AID1259405 (NCATS, 2018)", "screen": "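Knock-downs that lift recombinant protein yield in hamster ovary cells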 (primary screen)", "system": "Chinese hamster CHO-K1 ovary cells with stable secreted eGFP expression", "reagents": "single siRNA against mouse genes, 0.8 pmol siRNA per well (2 µl of 400 nM stock)", "timing": "3 days", "read-out": "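Percent of the per-plate non-targeting control median for intracellular GFP per well by laser scanning cytometry and for cell viability by ATP luminescence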", "direction": "GFP, % of control: higher = more GFP per well, higher productivity; viability (ATP), % of control: higher = more viable cells (more ATP)", "rule for the call": "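Called active when intracellular GFP, relative to negative control, is at or above 120%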", "note": "Here is an unselected part of about 50,000 reagents. Over the whole deposit, about 4,000 (8%) were called active. 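Mouse siRNA library applied to hamster cells; one well for each siRNA.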 Unmarked entries are inactive. Reagents against one gene are numbered here."}
{"target": "Ctps2 (cytidine 5'-triphosphate synthase 2)", "reagent": 1, "GFP, % of control": 52.2, "viability (ATP), % of control": 93.6}
{"target": "Ctps2 (cytidine 5'-triphosphate synthase 2)", "reagent": 2, "GFP, % of control": 59.6, "viability (ATP), % of control": 85.8}
{"target": "Ctps2 (cytidine 5'-triphosphate synthase 2)", "reagent": 3, "GFP, % of control": 38.3, "viability (ATP), % of control": 52.9}
{"target": "Or2n1c (olfactory receptor family 2 subfamily N member 1C)", "reagent": 1, "GFP, % of control": 85.3, "viability (ATP), % of control": 81}
{"target": "Or2n1c (olfactory receptor family 2 subfamily N member 1C)", "reagent": 2, "GFP, % of control": 55.2, "viability (ATP), % of control": 63}
{"target": "Or2n1c (olfactory receptor family 2 subfamily N member 1C)", "reagent": 3, "GFP, % of control": 61.7, "viability (ATP), % of control": 64.9}
{"target": "Il17f (interleukin 17F)", "reagent": 1, "GFP, % of control": 67.2, "viability (ATP), % of control": 54.1}
{"target": "Il17f (interleukin 17F)", "reagent": 2, "GFP, % of control": 60, "viability (ATP), % of control": 36.9}
{"target": "Il17f (interleukin 17F)", "reagent": 3, "GFP, % of control": 82.7, "viability (ATP), % of control": 67.6}
{"target": "4833420G17Rik (RIKEN cDNA 4833420G17 gene)", "reagent": 1, "GFP, % of control": 102, "viability (ATP), % of control": 60.3}
{"target": "4833420G17Rik (RIKEN cDNA 4833420G17 gene)", "reagent": 2, "GFP, % of control": 101, "viability (ATP), % of control": 90}
{"target": "4833420G17Rik (RIKEN cDNA 4833420G17 gene)", "reagent": 3, "GFP, % of control": 87.8, "viability (ATP), % of control": 78.3}
{"target": "Rabggtb (Rab geranylgeranyl transferase, b subunit)", "reagent": 1, "GFP, % of control": 6.35, "viability (ATP), % of control": 11.8}
{"target": "Rabggtb (Rab geranylgeranyl transferase, b subunit)", "reagent": 2, "GFP, % of control": 68.2, "viability (ATP), % of control": 142}
{"target": "Rabggtb (Rab geranylgeranyl transferase, b subunit)", "reagent": 3, "GFP, % of control": 108, "viability (ATP), % of control": 97.3}
{"target": "Onecut3 (one cut domain, family member 3)", "reagent": 1, "GFP, % of control": 67.3, "viability (ATP), % of control": 74.4}
{"target": "Onecut3 (one cut domain, family member 3)", "reagent": 2, "GFP, % of control": 64.2, "viability (ATP), % of control": 79}
{"target": "Onecut3 (one cut domain, family member 3)", "reagent": 3, "GFP, % of control": 79.7, "viability (ATP), % of control": 76}
{"target": "Nfx1 (nuclear transcription factor, X-box binding 1)", "reagent": 1, "GFP, % of control": 28.6, "viability (ATP), % of control": 39.9}
{"target": "Nfx1 (nuclear transcription factor, X-box binding 1)", "reagent": 2, "GFP, % of control": 67.6, "viability (ATP), % of control": 71.2}
{"target": "Nfx1 (nuclear transcription factor, X-box binding 1)", "reagent": 3, "GFP, % of control": 106, "viability (ATP), % of control": 118}
{"target": "Rpl30 (ribosomal protein L30)", "reagent": 1, "GFP, % of control": 67.8, "viability (ATP), % of control": 51.4}
{"target": "Rpl30 (ribosomal protein L30)", "reagent": 2, "GFP, % of control": 58.5, "viability (ATP), % of control": 32.4}
{"target": "Rpl30 (ribosomal protein L30)", "reagent": 3, "GFP, % of control": 71.2, "viability (ATP), % of control": 65}
{"target": "Ca13 (carbonic anhydrase 13)", "reagent": 1, "GFP, % of control": 35.9, "viability (ATP), % of control": 39.3}
{"target": "Ca13 (carbonic anhydrase 13)", "reagent": 2, "GFP, % of control": 91.2, "viability (ATP), % of control": 72.5}
{"target": "Spata21 (spermatogenesis associated 21)", "reagent": 1, "GFP, % of control": 95.5, "viability (ATP), % of control": 70.6}
{"target": "Spata21 (spermatogenesis associated 21)", "reagent": 2, "GFP, % of control": 84.6, "viability (ATP), % of control": 100}
{"target": "Spata21 (spermatogenesis associated 21)", "reagent": 3, "GFP, % of control": 70.3, "viability (ATP), % of control": 68.6}
